Test results as given in US20070142449A1, “Angiogenesis inhibitors” (priority 2002, published 2007).
Some results were stated once for a whole list of compounds, not compound by compound.

System: HUVECs
Assay: HUVEC growth inhibition assay (crystal violet)
Type: cell-based, Human
Conditions: 30 μM
Method: These compounds were tested in a growth inhibition assay using HUVECs as follows. 5×10^3 Human umbilical vein endothelial cells (HUVECs) were seeded in two 96-well plates (Clonetic # CC3162). Each well contains 100 μl of endothelial cell basal medium-2. After 24 hr, 100 μl endothelial cell growth medium-2 containing a test compound was added to each well of the two plates. The cells in the first plate were immediately stained with 0.5% crystal violet in 20% methanol for 10 minutes, rinsed with water, and air-dried. The cells in the second plate were incubated for 72 hours at 37° C. and then stained in the same manner. Each well in the first and second plates was eluted with 1:1 ethanol and 0.1 M sodium citrate, and absorbance of the resulting solution was measured at 540 nm with an ELISA reader.
Basal and control experiments were also conducted according to the above procedure, except that 100 μl endothelial basal medium-2 and 100 μl endothelial growth medium-2 were added to the second plates, respectively, instead of endothelial cell growth medium-2 containing a test compound.
HUVECs growth in each well was compared with that of the basal experiment according to the following equation: % basal=(Asecond plate−Afirst plate)/(Asecond plate of basal−Afirst plate of basal)×100%
where Asecond plate is the absorbance of the solution in the second plate; Afirst plate is the absorbance of the solution in the first plate; Asecond plate of basal is the absorbance of the solution in the second plate of the basal; and Afirst plate of basal is the absorbance of the solution in the first plate of the basal.

Row | SMILES | Inhibited growth of HUVECs, as compared with the control
1 | O=C(O)c1cccc(-c2nn(Cc3ccccc3)c3ccccc23)c1 [Compound 9] | inhibited
2 | OCc1ccc(-c2nn(Cc3ccccc3)c3cc(F)ccc23)o1 [Compound 6] | inhibited
3 | COC(=O)c1ccc(-c2nn(Cc3ccccc3)c3cc(F)ccc23)o1 [Compound 4] | inhibited
4 | COC(=O)c1ccc(-c2n[nH]c3ccccc23)o1 [Compound 2] | inhibited
5 | OCc1ccc(-c2n[nH]c3ccccc23)o1 [Compound 3] | inhibited
6 | Cc1ccc2c(-c3ccc(C(=O)O)o3)nn(Cc3ccccc3)c2c1 [Compound 8] | inhibited
7 | OCc1ccc(-c2nn(Cc3ccccc3)c3ccccc23)o1 [Compound 1, 1-benzyl-3-(5′-hydroxymethyl-2′-furyl)indazole] | inhibited
8 | Cc1ccc2c(-c3ccc(CO)o3)nn(Cc3ccccc3)c2c1 [Compound 7] | inhibited
